The other results are listed elsewhere or left out. Shown are side measurements of this screen, not its main read-out; they come without a call. The list favours compounds with an active or inconclusive main result. Words in brackets tell the shape of the fitted curve; partial curves, single points and poor fits give uncertain potencies.
Assay: qHTS Assay for Lipid Storage Modulators in Drosophila S3 Cells;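 on cell number change: cells counted by Cell Tracker Red CMTPX staining in the red channel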
Settings: BODIPY lipid droplet fluorescence, 18-24 h; for cell number change: measured here: cell count max response, cells fed with added oleic acid
Method in brief: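 Laser-scanning cytometry quantifies lipid droplet accumulation (500–530 nm total intensity; droplet/cell object ratio) in oleic acid-fed (400 uM added) Drosophila S3 cells treated with a concentration series. 20 uM Triacsin C defined 100% inhibition.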

[1] = measured here: cell number channel AC50, cells fed with added oleic acid
[2] = measured here: lipid fluorescence (Fed channel) AC50, cells fed with added oleic acid

SMILES	cell number change [%]	AC50 [1]	AC50 [2]
Cc1ccc(SCC(=O)OCC(=O)Nc2ccc3[nH]c(=O)[nH]c3c2)cc1C	-12.4	6.51 µM [falling, single point]	
Cc1ccc(C)c(OCc2cc(C(=O)NC(C)c3cnn(C)c3)no2)c1 (stereo unspecified)	-2.12		29.1 µM [rising, single point]
O=C(CN1CCCCC1)NNC(=O)c1cccc(Br)c1	-19		
CCc1ccc(S(=O)(=O)NC(=S)Nc2ccccc2)cc1	-0.993		
COC(=O)c1ccc(CSc2nnnn2-c2ccccc2)o1	63.2	8.2 µM [rising, partial curve, poor fit]	3.66 µM [rising, full curve]
COc1ccc(/C=C(/NC(=O)c2ccccc2OC)C(=O)Nc2ccc(C(=O)O)cc2)cc1	9.19		3.26 µM [falling, single point]
Fc1ccc(C2NC(=S)NC3=C2N2CCC3CC2)cc1 (stereo unspecified)	9		6.51 µM [falling, single point]
COc1cc(OC)cc(C(=O)NCC(=O)Nc2ccc(-c3ccccc3)cc2)c1	23.9		11.6 µM [falling, single point]
C=CCn1c(=NC(=O)CC)n(C)c2ccccc21	-7.46		0.058 µM [falling, full curve]
Cc1csc(SCC(=O)NC2CCC(C)CC2)n1 (stereo unspecified)			0.00517 µM [rising, full curve, poor fit]
CCN1CCN(c2nc3ccccn3c(=O)c2C=O)CC1		0.82 µM [rising, single point]	
CCN(CC)S(=O)(=O)c1ccc2oc(Nc3ccc4c(c3)OCCO4)nc2c1		6.51 µM [rising, single point]	0.58 µM [falling, single point]
Cc1cccc(NC(=O)C2CCCN(C(=O)Nc3ccc(F)cc3)C2)c1C (stereo unspecified)	2.56		6.51 µM [rising, partial curve]
Cc1ccccc1NC(=O)c1sc2nc3c(c(-c4ccco4)c2c1N)CCCC3	17.4	1.03 µM [rising, partial curve, poor fit]	3.26 µM [rising, partial curve]
CCCN(C(=O)CCOc1ccc(C(C)(C)C)cc1)c1c(N)n(Cc2ccccc2)c(=O)[nH]c1=O	-45.2	20.6 µM [falling, single point]	10.3 µM [falling, partial curve]
Cc1ccc(OCc2nc(C#N)c(N3CCN(Cc4ccccc4)CC3)o2)cc1			0.651 µM [rising, partial curve, poor fit]
COc1ccc(CN(C)C(=O)Cn2ccc(N)nc2=O)cc1OC	-0.323	0.366 µM [falling, partial curve]	0.366 µM [falling, partial curve]
CC(C)CCC(=O)N1CCC(N2CCC(C(=O)NCc3ccccn3)CC2)CC1	-10.1		
COc1ccc(-c2cc(C(=O)NCC3CCCO3)on2)cc1OC (stereo unspecified)	44	32.6 µM [rising, single point]	2.06 µM [rising, partial curve, poor fit]
O=C(NCC(c1cccnc1)N1CCOCC1)Nc1ccccc1 (stereo unspecified)	14.9		29.1 µM [rising, single point]
COC(=O)/C=C1\NCCSC1=O	-31.1	32.6 µM [falling, single point]	25.9 µM [falling, single point]
COc1ccc(C)cc1Nc1n[n+](-c2ccccc2)c(-c2cc(OC)c(OC)cc2Br)s1	-14.1		29.1 µM [falling, single point]
NC(=O)Cn1nnc(-c2ccc(CN3CCCCC3)cc2)n1	-8.35		0.517 µM [falling, full curve]
Cc1cccc(NC(=O)c2cn(-c3ccccc3)nc2-c2ccccc2)c1	8.75	0.326 µM [falling, full curve, poor fit]	
O=C1Nc2c(c(=O)[nH]c(=O)n2-c2ccccc2)C1(Nc1ncccn1)C(F)(F)F (stereo unspecified)	-109	29.1 µM [falling, partial curve, poor fit]	0.13 µM [falling, full curve, poor fit]
O=S(=O)(NC1c2cccc3cccc(c23)C1N1CCNCC1)c1ccccc1 (stereo unspecified)	23.4		32.6 µM [rising, single point]
CCN(CC)S(=O)(=O)c1ccc(C(=O)C(C#N)c2ccccn2)cc1 (stereo unspecified)	-23.1		
O=C(COC(=O)c1cc([N+](=O)[O-])ccc1N1CCOCC1)c1ccc(OC(F)F)cc1OC(F)F	118	14.6 µM [rising, partial curve]	

One compound at a time, as listed above.
COc1ccc(-c2cc(C(=O)NCC3CCCO3)on2)cc1OC (stereo unspecified) is listed as cell number change [%]: 44; AC50 [1]: 32.6 µM [rising, single point]; AC50 [2]: 2.06 µM [rising, partial curve, poor fit]
CCN(CC)S(=O)(=O)c1ccc(C(=O)C(C#N)c2ccccn2)cc1 (stereo unspecified) is listed as cell number change [%]: -23.1
